Two molecules from paper PMC7215500 can be followed below.

Experiment [1] concerns the target Tomato leaf curl Guangdong virus (ToLCGdV) C4, split-YFP fusion for BiFC (Tomato leaf curl Guangdong virus). Description: split reporter; BiFC with split YFP; C4-nYFP with BAM1-cYFP, or C4-cYFP with BAM1-nYFP, co-infiltrated into N. benthamiana leaves; confocal microscopy at 3 dpi.
Experiment [2] addresses Tomato leaf curl Guangdong virus (ToLCGdV) C4 with Myc tag (Tomato leaf curl Guangdong virus). Description: co-IP; AC4-6xMyc and BAM1-GFP co-infiltrated into N. benthamiana leaves, collected at 3 dpi; precipitated with anti-c-Myc agarose affinity gel; blots with anti-GFP and anti-Myc.

No constants are given. Whether binding was seen depends on the method and setting. Binding seen in cells or lysates may run through a third protein. Binding calls can cover weak binding; strength is not graded here. Tags and fused reporters may be left off the sequences shown.

B1: BARELY ANY MERISTEM 1 (BAM1), split-YFP fusion for BiFC (receptor, UniProt O49545 20-1003)
chain: SRPISEFRALLSLKTSLTGAGDDKNSPLSSWKVSTSFCTWIGVTCDVSRRHVTSLDLSGLNLSGTLSPDVSHLRLLQNLSLAENLISGPIPPEISSLSGLRHLNLSNNVFNGSFPDEISSGLVNLRVLDVYNNNLTGDLPVSVTNLTQLRHLHLGGNYFAGKIPPSYGSWPVIEYLAVSGNELVGKIPPEIGNLTTLRELYIGYYNAFEDGLPPEIGNLSELVRFDGANCGLTGEIPPEIGKLQKLDTLFLQVNVFSGPLTWELGTLSSLKSMDLSNNMFTGEIPASFAELKNLTLLNLFRNKLHGEIPEFIGDLPELEVLQLWENNFTGSIPQKLGENGKLNLVDLSSNKLTGTLPPNMCSGNKLETLITLGNFLFGSIPDSLGKCESLTRIRMGENFLNGSIPKGLFGLPKLTQVELQDNYLSGELPVAGGVSVNLGQISLSNNQLSGPLPPAIGNFTGVQKLLLDGNKFQGPIPSEVGKLQQLSKIDFSHNLFSGRIAPEISRCKLLTFVDLSRNELSGEIPNEITAMKILNYLNLSRNHLVGSIPGSISSMQSLTSLDFSYNNLSGLVPGTGQFSYFNYTSFLGNPDLCGPYLGPCKDGVAKGGHQSHSKGPLSASMKLLLVLGLLVCSIAFAVVAIIKARSLKKASESRAWRLTAFQRLDFTCDDVLDSLKEDNIIGKGGAGIVYKGVMPNGDLVAVKRLAAMSRGSSHDHGFNAEIQTLGRIRHRHIVRLLGFCSNHETNLLVYEYMPNGSLGEVLHGKKGGHLHWDTRYKIALEAAKGLCYLHHDCSPLIVHRDVKSNNILLDSNFEAHVADFGLAKFLQDSGTSECMSAIAGSYGYIAPEYAYTLKVDEKSDVYSFGVVLLELVTGRKPVGEFGDGVDIVQWVRKMTDSNKDSVLKVLDPRLSSIPIHEVTHVFYVAMLCVEEQAVERPTMREVVQILTEIPKLPPSKDQPMTESAPESELSPKSGVQSPPDLLNL
As for B1, the binding entry in experiment [1] is “binds”.

B2: BARELY ANY MERISTEM 1 (BAM1) fused to GFP (receptor, UniProt O49545 20-1003)
chain: SRPISEFRALLSLKTSLTGAGDDKNSPLSSWKVSTSFCTWIGVTCDVSRRHVTSLDLSGLNLSGTLSPDVSHLRLLQNLSLAENLISGPIPPEISSLSGLRHLNLSNNVFNGSFPDEISSGLVNLRVLDVYNNNLTGDLPVSVTNLTQLRHLHLGGNYFAGKIPPSYGSWPVIEYLAVSGNELVGKIPPEIGNLTTLRELYIGYYNAFEDGLPPEIGNLSELVRFDGANCGLTGEIPPEIGKLQKLDTLFLQVNVFSGPLTWELGTLSSLKSMDLSNNMFTGEIPASFAELKNLTLLNLFRNKLHGEIPEFIGDLPELEVLQLWENNFTGSIPQKLGENGKLNLVDLSSNKLTGTLPPNMCSGNKLETLITLGNFLFGSIPDSLGKCESLTRIRMGENFLNGSIPKGLFGLPKLTQVELQDNYLSGELPVAGGVSVNLGQISLSNNQLSGPLPPAIGNFTGVQKLLLDGNKFQGPIPSEVGKLQQLSKIDFSHNLFSGRIAPEISRCKLLTFVDLSRNELSGEIPNEITAMKILNYLNLSRNHLVGSIPGSISSMQSLTSLDFSYNNLSGLVPGTGQFSYFNYTSFLGNPDLCGPYLGPCKDGVAKGGHQSHSKGPLSASMKLLLVLGLLVCSIAFAVVAIIKARSLKKASESRAWRLTAFQRLDFTCDDVLDSLKEDNIIGKGGAGIVYKGVMPNGDLVAVKRLAAMSRGSSHDHGFNAEIQTLGRIRHRHIVRLLGFCSNHETNLLVYEYMPNGSLGEVLHGKKGGHLHWDTRYKIALEAAKGLCYLHHDCSPLIVHRDVKSNNILLDSNFEAHVADFGLAKFLQDSGTSECMSAIAGSYGYIAPEYAYTLKVDEKSDVYSFGVVLLELVTGRKPVGEFGDGVDIVQWVRKMTDSNKDSVLKVLDPRLSSIPIHEVTHVFYVAMLCVEEQAVERPTMREVVQILTEIPKLPPSKDQPMTESAPESELSPKSGVQSPPDLLNL
Consider B2, for which, in experiment [2], the binding entry is “binds”.
